Results published in PMC11904043.
No constants are given. Whether binding was seen depends on the method and setting. Binding seen in cells or lysates may run through a third protein. Some entries that bind do so weakly or less than the wild type.

Amino acid sequences for entries named in this document (tags omitted).
UniProt Q13131: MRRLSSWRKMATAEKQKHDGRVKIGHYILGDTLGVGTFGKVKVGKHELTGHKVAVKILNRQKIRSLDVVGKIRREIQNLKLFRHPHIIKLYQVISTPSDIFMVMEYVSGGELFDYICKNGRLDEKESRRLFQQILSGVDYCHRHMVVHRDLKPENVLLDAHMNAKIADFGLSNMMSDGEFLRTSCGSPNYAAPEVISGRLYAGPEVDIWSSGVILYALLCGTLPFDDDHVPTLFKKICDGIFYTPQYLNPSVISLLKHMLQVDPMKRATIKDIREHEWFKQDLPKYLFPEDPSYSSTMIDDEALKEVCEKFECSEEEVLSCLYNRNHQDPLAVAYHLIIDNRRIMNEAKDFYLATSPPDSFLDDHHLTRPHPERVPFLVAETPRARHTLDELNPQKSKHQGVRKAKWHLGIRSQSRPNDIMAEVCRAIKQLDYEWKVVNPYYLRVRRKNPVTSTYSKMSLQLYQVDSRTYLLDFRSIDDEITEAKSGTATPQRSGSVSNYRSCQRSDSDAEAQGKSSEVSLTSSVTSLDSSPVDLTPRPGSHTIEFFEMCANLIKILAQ
UniProt P54646: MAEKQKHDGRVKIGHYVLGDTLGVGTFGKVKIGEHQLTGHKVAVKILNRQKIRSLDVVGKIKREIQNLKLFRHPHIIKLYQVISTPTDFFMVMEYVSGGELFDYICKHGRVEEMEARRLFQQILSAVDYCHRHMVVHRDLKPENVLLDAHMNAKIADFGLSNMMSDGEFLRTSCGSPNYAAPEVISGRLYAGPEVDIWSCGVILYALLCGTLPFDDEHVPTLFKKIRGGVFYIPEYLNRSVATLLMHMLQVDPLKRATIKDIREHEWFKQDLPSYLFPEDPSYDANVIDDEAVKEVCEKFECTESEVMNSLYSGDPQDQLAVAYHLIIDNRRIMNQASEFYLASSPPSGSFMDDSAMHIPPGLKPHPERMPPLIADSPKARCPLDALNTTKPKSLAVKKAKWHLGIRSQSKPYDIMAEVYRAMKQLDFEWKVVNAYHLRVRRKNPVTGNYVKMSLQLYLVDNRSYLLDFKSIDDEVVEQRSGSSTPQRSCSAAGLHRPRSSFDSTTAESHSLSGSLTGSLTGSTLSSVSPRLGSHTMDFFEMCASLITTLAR

Legend:
PRKAA1-flag = PRKAA1-flag (UniProt Q13131); test: co-IP; Huh7 cells cotransfected with TBK1 and PRKAA1-flag or PRKAA2-flag, with or without HEV infection for 48 h; lysate incubated with the indicated primary antibody overnight at 4 °C, then protein A/G-agarose beads for 4 h; Western blotting
PRKAA2-flag = PRKAA2-flag (UniProt P54646); test: as above

binding (PRKAA1-flag): binds
binding (PRKAA2-flag): binds
B1: TBK1 (protein, UniProt Q9UHD2 1-729)
chain: MQSTSNHLWLLSDILGQGATANVFRGRHKKTGDLFAIKVFNNISFLRPVDVQMREFEVLKKLNHKNIVKLFAIEEETTTRHKVLIMEFCPCGSLYTVLEEPSNAYGLPESEFLIVLRDVVGGMNHLRENGIVHRDIKPGNIMRVIGEDGQSVYKLTDFGAARELEDDEQFVSLYGTEEYLHPDMYERAVLRKDHQKKYGATVDLWSIGVTFYHAATGSLPFRPFEGPRRNKEVMYKIITGKPSGAISGVQKAENGPIDWSGDMPVSCSLSRGLQVLLTPVLANILEADQEKCWGFDQFFAETSDILHRMVIHVFSLQQMTAHKIYIHSYNTATIFHELVYKQTKIISSNQELIYEGRRLVLEPGRLAQHFPKTTEENPIFVVSREPLNTIGLIYEKISLPKVHPRYDLDGDASMAKAITGVVCYACRIASTLLLYQELMRKGIRWLIELIKDDYNETVHKKTEVVITLDFCIRNIEKTVKVYEKLMKINLEAAELGEISDIHTKLLRLSSSQGTIETSLQDIDSRLSPGGSLADAWAHQEGTHPKDRNVEKLQVLLNCMTEIYYQFKKDKAERRLAYNEEQIHKFDKQKLYYHATKAMTHFTDECVKKYEAFLNKSEEWIRKMLHLRKQLLSLTNQCFDIEEEVSKYQEYTNELQETLPQKMFTASSGIKHTMTPIYPSSNTLVEMTLGMKKLKEEMEGVVKELAENNHILERFGSLTMDGGLRNVDCL
